Laboratory results from PubChem BioAssay AID1347426 (Functional Genomics Laboratory (NCATS/FGL), 2020).
Screen size: about 31,000 sequences; about 1,400 (4.5%) were called active.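 How the source made its calls: active means median seed-adjusted z-score above 1 or below -1; inactive means the rest.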 The list shows a part of the results.

Test: Novel Modifiers of Survival Motor Neuron (SMN) Protein: Gene Identification via Genome-wide siRNA Screen;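 further: luminescence tracks full-length SMN protein made from the SMN2 reporter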
Conditions: HEK293T SMN2-luciferase reporter, siRNA knockdown, 72 h; actives lie on both sides
Method in brief: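 Luciferase signal, proportional to full-length SMN made from an SMN2 cDNA reporter in stable HEK293T cells, was read 72 h after siRNA reverse transfection. Values were expressed as MAD scores after non-targeting-control normalization and log10 conversion; seed analysis flagged off-targets.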
With GCACUAUUGUCACCAGAAATT against MARK4 the median seed-adjusted z-score was inactive: -0.675.
With CGGUUAUCCCUAAUAUCCATT against PCDHB11 the median seed-adjusted z-score was inactive: -0.257.
In the case of CCUUCCCUGUCGACACAACTT against GP1BB, the median seed-adjusted z-score was inactive: -0.711.
For GCUCGUGACUGGCUAACAATT against FAHD2B, the median seed-adjusted z-score was inactive: 0.154.
With AACCUGAACUCAUCCUACATT against BEST2 the median seed-adjusted z-score was inactive: 0.415.
With GAAACUUUGACUUAAAGAATT against FEZF2 the median seed-adjusted z-score was inactive: 0.203.
In the case of GGACCAAGAUGAUCAGAAATT against SAFB, the median seed-adjusted z-score was inactive: -0.954.
In the case of CUAUGAACGAGUCAAGGAATT against TTC9, the median seed-adjusted z-score was inactive: -0.173.
With CCCUCGCUUUCUUCACAGUTT against ENTPD3 the median seed-adjusted z-score was inactive: -0.28.
In the case of GGAGGUCUCCUACAUCAAATT against ZAN, the median seed-adjusted z-score was inactive: 0.736.
In the case of UGAUCACCAUCGGAAAUGATT against ACTA2, the median seed-adjusted z-score was inactive: 0.739.
For GAUUCUACCCAAGUACAUATT against SLC25A36, the median seed-adjusted z-score was inactive: 0.134.
With GGAACACUUUCUCUCUAGATT against NOD2 the median seed-adjusted z-score was inactive: 0.129.
In the case of GGACUACAGUAUACAUUGUTT against PCDH24, the median seed-adjusted z-score was inactive: 0.345.
In the case of GGAGUACUGGAUGUUCAAATT against SLC29A3, the median seed-adjusted z-score was inactive: -0.0626.
For GAGUGGUAGUGCUCACGAATT against CPE, the median seed-adjusted z-score was inactive: 0.139.
With GAACAUUGGUGACUAUAUUTT against GRIP2 the median seed-adjusted z-score was inactive: -0.0256.
For AGGUCAACCAGAUCAUUAATT against ELFN2, the median seed-adjusted z-score was inactive: -0.0888.
For UCAACUACCCGUUCGAGAATT against NDUFS8, the median seed-adjusted z-score was inactive: -0.467.
In the case of CAAUCAGCAGAGUUACAUUTT against CPEB3, the median seed-adjusted z-score was inactive: 0.086.
With AGAACUGCGUGACUAUACATT against ZNF417 the median seed-adjusted z-score was inactive: 0.0205.
For CUGAUUCAAGAGAAGAUUATT against SMARCAL1, the median seed-adjusted z-score was inactive: -0.145.
With GGCUUCCAGAAGAUCUACATT against FREQ the median seed-adjusted z-score was inactive: -0.353.
In the case of CCACUAUUCUAGCAUCCGUTT against PKP4, the median seed-adjusted z-score was inactive: 0.368.
With GUAUCUGCGAGGACGAAAATT against RNF113B the median seed-adjusted z-score was inactive: -0.228.
For GCUGGUGCUUAGCAACAAATT against RNASE10, the median seed-adjusted z-score was inactive: -0.109.
For GCCCAGACAUGAGCUACGATT against ABHD11, the median seed-adjusted z-score was inactive: -0.189.
In the case of CACUCAACCCUGUCGCUUUTT against NR2E1, the median seed-adjusted z-score was inactive: 0.559.
With GCAUCCGUGGAAAUGGUUATT against ASNS the median seed-adjusted z-score was active: -1.1.
With GCACUUUUGCUUUCAGAUATT against SNX10 the median seed-adjusted z-score was inactive: 0.391.
With GGAUCUCAACAUGUUCCUATT against LCAT the median seed-adjusted z-score was inactive: 0.526.
For ACGCAGUUCUGGAACUACCTT against TNFRSF6B, the median seed-adjusted z-score was inactive: 0.0458.
For CGAAUGUCACCAUAUAUAATT against IL1RL1, the median seed-adjusted z-score was inactive: -0.286.
In the case of GGUUUGAAGCAGUAUUACATT against DDX20, the median seed-adjusted z-score was inactive: -0.0137.
In the case of GGCUGGUCCUCCAAACAUATT against CBX2, the median seed-adjusted z-score was inactive: -0.215.
With GAGCUAAGUUUGUAUCCAATT against EFHB the median seed-adjusted z-score was inactive: 0.675.
For “GGGACAUUGUAUGAGCUCATT against CSGALNACT1”, the median seed-adjusted z-score was inactive: -0.235.
With CGCUUAUCUUCGAUAUCUATT against DHCR24 the median seed-adjusted z-score was inactive: 0.493.
For GGAGUACACUUGAAAGACUTT against RASGRP3, the median seed-adjusted z-score was inactive: 0.0202.
In the case of CAGCAAAGGUGCAGCCUUUTT against BGLAP, the median seed-adjusted z-score was inactive: -0.488.
With UCAUAUGUAUGAUCCAAUUTT against SPINK9 the median seed-adjusted z-score was inactive: 0.392.
For CACUGUUAAUAUUCGCUAUTT against SERAC1, the median seed-adjusted z-score was inactive: -0.0919.
With GCGACUGUCUCGACAGAUATT against HTT the median seed-adjusted z-score was inactive: -0.234.
For GGUGGGAUCAGAUUGCUGATT against KLHL3, the median seed-adjusted z-score was inactive: -0.237.
For GCUCUAGCCUUAUUACGCATT against ZNF256, the median seed-adjusted z-score was inactive: 0.00739.
With GCUGAUUAUUGUAUUCAGATT against HTATSF1 the median seed-adjusted z-score was inactive: -0.411.
For GCAAGGAGAUUUACUCGAATT against RECQL, the median seed-adjusted z-score was inactive: -0.905.
With GAGGCAUGAAAAUAUCUUATT against ACVR1 the median seed-adjusted z-score was inactive: -0.217.
With AGACUACGGUUUGAGCUCATT against IL6R the median seed-adjusted z-score was inactive: -0.441.
With GGAAUGCAAGGAGCAAGUATT against CSTF2 the median seed-adjusted z-score was inactive: 0.586.
For CGGCAUUACCUCAACCUGATT against HELT, the median seed-adjusted z-score was inactive: -0.192.
For GUCUAUCUCUUGUCUAAAATT against HYAL4, the median seed-adjusted z-score was inactive: -0.236.
With ACAACAACAAGAUCCGUGATT against CHAD the median seed-adjusted z-score was inactive: 0.
For CCAGAAUGCCCAUAUCACATT against RS1, the median seed-adjusted z-score was inactive: -0.684.
For GAUGCAGUUUUGUACUUGATT against PNPLA1, the median seed-adjusted z-score was inactive: 0.00692.
With CUGGAUUUCUGUUCAGAUUTT against ZNRD1 the median seed-adjusted z-score was inactive: -0.133.
In the case of GGGUAAUUGGAACAUGUUUTT against RCN3, the median seed-adjusted z-score was active: -2.44.
With AGAACGGCCUUCUAAGAAATT against IRF2 the median seed-adjusted z-score was inactive: 0.367.
In the case of GAGUCCAUAUGGUACAAGATT against PNMA1, the median seed-adjusted z-score was inactive: 0.2.
With GGUUUCUCGACUUCAGAAATT against CHST4 the median seed-adjusted z-score was inactive: 0.349.
For CGAGCUUUUUCAUUGGAGATT against GPRC6A, the median seed-adjusted z-score was inactive: 0.
With GCAGAACCGUUAUUACAAATT against PITPNA the median seed-adjusted z-score was inactive: -0.225.
With UCCAUGGACUGAUCUAUAATT against PPP2R5D the median seed-adjusted z-score was inactive: 0.848.
For CGGUCACUCUCAACAUGGATT against DVL3, the median seed-adjusted z-score was inactive: -0.57.
With GUAUCUUCCUACGAAGUUATT against PHKA1 the median seed-adjusted z-score was inactive: 0.286.
In the case of GGGUGUGGAUGGUCUGACUTT against COL9A3, the median seed-adjusted z-score was inactive: 0.16.
In the case of CCCACCUAAAAGAACGAAATT against ABCE1, the median seed-adjusted z-score was inactive: -0.0527.
For GAACUUGACGAUACUCUAATT against PPP2CA, the median seed-adjusted z-score was inactive: 0.731.
In the case of ACUGUGCUGUGGUUGAUUATT against GPR20, the median seed-adjusted z-score was inactive: 0.442.
In the case of CAGAGUAUCUUCAACUAAUTT against TNFSF11, the median seed-adjusted z-score was inactive: 0.0212.
In the case of GUUCCACAAUAGCCACGUGTT against COX6A2, the median seed-adjusted z-score was inactive: 0.714.
With CGACACUUUCUAUCGACAATT against UBA3 the median seed-adjusted z-score was inactive: 0.605.
In the case of GGACAUACACUGAGAGUCATT against PDLIM2, the median seed-adjusted z-score was inactive: 0.267.
With GCUGGUCACCGUGAAGUCATT against RASL12 the median seed-adjusted z-score was inactive: -0.256.
With ACAAGUUCACGCCCAAGUATT against LMNB2 the median seed-adjusted z-score was inactive: -0.15.
In the case of GAGCUGCGACUGUAAGAGATT against DHX35, the median seed-adjusted z-score was inactive: -0.066.
For AAACGGCUUUACUUACAAATT against UCRC, the median seed-adjusted z-score was inactive: -0.93.
In the case of CAAGAUUAGAGAAUACAAATT against ATP5J, the median seed-adjusted z-score was inactive: 0.242.
With GCAGCUCUGAGAACGGCAATT against ARHGEF1 the median seed-adjusted z-score was inactive: -0.0658.
In the case of GGUUACCAGUUAUAUGACATT against MCCC2, the median seed-adjusted z-score was inactive: -0.0566.
In the case of GGAUAUCUUAUACUGGUGATT against DMGDH, the median seed-adjusted z-score was inactive: 0.0323.
In the case of GGAAGACUGUGAAGCUACATT against RAB4B, the median seed-adjusted z-score was inactive: -0.207.
In the case of CGAACCUAAUGCUCAACAATT against PREX2, the median seed-adjusted z-score was inactive: -0.0625.
In the case of GGAUCCACAUAAUGAAGAATT against DNAL1, the median seed-adjusted z-score was inactive: 0.866.
With GGACGAGAAAAACUGCUCATT against CORIN the median seed-adjusted z-score was inactive: -0.0274.
With GCUAAGGAACUACUAGAUATT against STK33 the median seed-adjusted z-score was inactive: -0.168.
For CUAUAGCCCUCAUAACUAATT against ARSB, the median seed-adjusted z-score was inactive: 0.914.
With CCGUAUUUCUAGUUCCCUUTT against ZNF442 the median seed-adjusted z-score was active: 1.06.
In the case of CCUUCAUUGAGGACCUGAATT against PTP4A3, the median seed-adjusted z-score was inactive: 0.354.
In the case of CUCAAUGAGUGGUACGUUUTT against ZIC5, the median seed-adjusted z-score was inactive: 0.
With CCGAGUGGGUGAGCACAAATT against NAGS the median seed-adjusted z-score was inactive: 0.0484.
In the case of GGACUUGGUUUUUCGUACATT against MED14, the median seed-adjusted z-score was active: -3.22.
For GAUCAGUCGUGAGACGUGUTT against PRSS8, the median seed-adjusted z-score was inactive: -0.275.
With GCACCACACUGCGAGAUGATT against TAPBP the median seed-adjusted z-score was inactive: -0.786.
For GGCACUAUUUCCAAUGGAATT against ADAMTS12, the median seed-adjusted z-score was inactive: -0.0721.
In the case of GCACGAGUACUACAGAGGATT against POFUT2, the median seed-adjusted z-score was inactive: -0.86.
With GGGUAUCACCUCACGCUUATT against ABCA12 the median seed-adjusted z-score was inactive: 0.0759.
With GGACUGCUAUUUAAAUUCUTT against SLC7A1 the median seed-adjusted z-score was inactive: 0.445.
With GCAUCGUGUUUACCAUCGATT against CDH20 the median seed-adjusted z-score was inactive: -0.397.
For GCAAGGCUUUUGACGUAGATT against MAP3K6, the median seed-adjusted z-score was inactive: 0.
With CCAGCAGACUUGAGUCUGATT against GNB3 the median seed-adjusted z-score was inactive: -0.373.
For GCAUCUCUAUUGUAGCCCUTT against GHRHR, the median seed-adjusted z-score was inactive: 0.
In the case of UGAGUCACGUGAUAGAUUATT against ZNF587, the median seed-adjusted z-score was inactive: -0.178.
With AGAUGCUUGUUAUACCUUUTT against KRT38 the median seed-adjusted z-score was inactive: 0.0884.
For CCACUAUCCUGAGAAGGAATT against IYD, the median seed-adjusted z-score was inactive: -0.572.
With GCUGGUACACUGUAUCUCATT against MTMR14 the median seed-adjusted z-score was inactive: 0.131.
With GCAACGACAAGGUGAUUAATT against ALDH3A1 the median seed-adjusted z-score was inactive: -0.486.
